Laboratory results published in PubChem BioAssay AID1487 (National Center for Advancing Translational Sciences (NCATS), 2009).
The list shows a part of the results. The main result of the screen is listed elsewhere. These columns were measured beside it and carry no call. Most of these compounds were active or inconclusive in the main read-out, so they are no random draw. The note in brackets gives the kind of curve behind each potency; many fits are weak.

Test: qHTS Assay for Modulators of Lamin A Splicing
Details: HeLa LMNA splicing GFP/RFP minigene ratio, 48 h
Method in brief: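 Read-out is the ratio of GFP to DsRed2 object intensity, acquired by 488 nm laser-scanning cytometry on HeLa lamin A-EGFP minigene reporter cells. Compound incubation 48 hrs at 37 °C in Opti-MEM with 2% FBS; DMSO 0.5% final.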

[1] = measured here: GFP splicing reporter channel
[2] = measured here: RFP viability control channel

Compound	AC50 [1]	AC50 [2]
CC#CCN1c2ccccc2[C@]23C[C@@H](C(=O)OC)N(S(=O)(=O)c4ccc(OC)cc4)C2=NC(C(=O)OC)=C(C(=O)OC)[C@H]13	0.891 µM [rising, full curve, poor fit]	–
O=C(CSCc1ccc(F)cc1)N1CCN(c2ccc(F)cc2)CC1	11.2 µM [rising, partial curve]	15.8 µM [rising, partial curve]
Nc1ncc(-c2nnnn2-c2ccc(Cl)cc2)c(-c2ccc(Cl)cc2)n1	12.6 µM [falling, single point]	11.2 µM [falling, partial curve]
Cc1ccccc1NC(=O)COc1ccc(Br)cc1C	–	11.2 µM [falling, partial curve, poor fit]
N=C(c1cccc([N+](=O)[O-])c1)N1CCCCC1	–	0.01 µM [falling, full curve, poor fit]
COCCNC(=S)N1CCc2cc(OC)c(OC)cc2C1COc1ccc(F)cc1 (stereo not given)	4.47 µM [falling, full curve]	3.55 µM [falling, full curve, poor fit]
CCOC(=O)c1cc2occc2n1CC(=O)Nc1ccc(OC)cc1OC	–	35.5 µM [rising, single point]
CN(c1cccc(Cl)c1)S(=O)(=O)c1cccc(C(=O)Nc2nc3ccccc3[nH]2)c1	6.31 µM [falling, partial curve, poor fit]	35.5 µM [falling, single point]
CCC(C)NC(=S)N1CCN(C(c2ccccc2)c2ccccc2)CC1 (stereo not given)	35.5 µM [rising, single point]	31.6 µM [rising, single point]
CN1CCN(c2ncnc3ccc(-c4ccc5c(c4)OCO5)cc23)CC1	11.2 µM [falling, single point]	0.251 µM [falling, full curve, poor fit]
O=c1[nH]c(NC2CCCCC2)nnc1Cc1ccccc1	0.501 µM [falling, full curve, poor fit]	0.501 µM [falling, full curve, poor fit]
COC(=O)/C(=N/Nc1ccccc1C)N1CCCc2ccccc21	–	12.6 µM [rising, partial curve, poor fit]
COc1ccc(N2CCN(C(=O)c3ccc(-n4nc(C)cc4C)cc3)CC2)cc1	20 µM [rising, partial curve, poor fit]	22.4 µM [rising, single point]
CN(C)CC(O)CN1C(=O)NC(C)(C)C1=O (stereo not given)	1.26 µM [falling, partial curve, poor fit]	0.631 µM [falling, full curve]
CCn1cc(S(=O)(=O)c2cc(C)cc(C)c2)c(=O)c2cc(F)c(N3CCCC3)cc21	0.0224 µM [falling, full curve, poor fit]	–
C#CCn1c(=NC(=O)c2ccc(S(=O)(=O)N3CCc4ccccc4C3)cc2)sc2cc(S(N)(=O)=O)ccc21	–	15.8 µM [falling, partial curve, poor fit]
COc1ccc(N2CCN(C(=O)c3ccc(N(C)S(=O)(=O)c4ccc(OC)cc4)cc3)CC2)cc1	10 µM [falling, partial curve]	6.31 µM [falling, full curve, poor fit]
O=C(NCCc1ccc2c(c1)OCCO2)c1ccccc1F	12.6 µM [rising, partial curve, poor fit]	14.1 µM [rising, partial curve]
COc1ccccc1N1CCN(c2ncnc3c2oc2ccccc23)CC1	–	5.01 µM [rising, full curve]
CCOC(=O)c1c(-c2ccc(F)cc2)csc1NC(=O)c1c(-c2ccccc2)noc1C	–	8.91 µM [rising, partial curve]
CC1(C(=O)NCCN2CCOCC2)C=CCN1C(=O)c1ccccc1 (stereo not given)	–	1.26 µM [falling, full curve, poor fit]
Cc1ccc(NC(=O)CN2C(=O)S/C(=C/c3ccc(O)c([N+](=O)[O-])c3)C2=O)cc1C	8.91 µM [falling, partial curve, poor fit]	11.2 µM [falling, partial curve, poor fit]
Cc1ccc(S(=O)(=O)N2CCN(C(=O)CSc3ncc(C(F)(F)F)cc3Cl)CC2)cc1	–	31.6 µM [rising, single point]
CCOc1ccc(OC(=O)c2cn(-c3ccc(C)cc3)c(=O)c3ccccc23)cc1	–	2.24 µM [rising, partial curve, poor fit]
O=C(Cc1ccc(Cl)c(Cl)c1)Nc1ccc(SC(F)F)cc1	–	35.5 µM [rising, single point]
O=C(CCN1CCOCC1)c1ccc(Br)cc1	8.91 µM [falling, partial curve]	11.2 µM [falling, partial curve]
Cc1ccc(OC(=O)c2cc(=O)c3ccccc3o2)cc1	0.141 µM [rising, full curve, poor fit]	–

Compound	AC50 [1]	AC50 [2]
O=C1CCCC(=O)N1c1ccc(N2CCN(c3ccc([N+](=O)[O-])cc3)CC2)c([N+](=O)[O-])c1	31.6 µM [rising, single point]	35.5 µM [rising, single point]
S=C(NCCc1ccc(Cl)cc1)Nc1ccc(Cl)cc1Cl	–	11.2 µM [rising, partial curve]
CC1(C)Cc2nc3sc4c(N(CCO)CCO)nnnc4c3cc2CO1	0.00316 µM [rising, full curve, poor fit]	0.00316 µM [rising, full curve, poor fit]
O=CNCC(=O)NCCc1ccc(Cl)cc1	0.501 µM [falling, partial curve, poor fit]	0.562 µM [falling, partial curve, poor fit]
CCc1ccc(OCc2n[nH]c(=S)n2C(C)CCCC(C)C)cc1 (stereo not given)	35.5 µM [falling, single point]	22.4 µM [falling, single point]
CN(N=O)C(=O)N[C@H]1[C@@H](O)[C@H](O)[C@H](CO)O[C@@H]1O	0.00224 µM [falling, full curve, poor fit]	2.82 µM [rising, full curve, poor fit]
CCn1ncc(C2=NOC(C(=O)Nc3c(C)nn(Cc4ccc(F)cc4)c3C)C2)c1C (stereo not given)	–	35.5 µM [rising, single point]
CCOC(=O)CC(NS(=O)(=O)c1ccc2[nH]c3c(c2c1)CCCC3)c1ccccc1Cl (stereo not given)	0.112 µM [falling, full curve, poor fit]	1 µM [falling, partial curve]
Fc1ccc(C(Nc2ccccn2)c2c[nH]c3ccccc23)cc1 (stereo not given)	10 µM [falling, partial curve]	–
COC(=O)c1[nH]nc(C(=O)OC(C)(C)C)c1-c1ccccc1	15.8 µM [rising, single point]	35.5 µM [rising, single point]
O=C(CSc1nnnn1Cc1ccccc1)c1ccccc1	–	3.55 µM [falling, single point]
COC(=O)c1c(-c2ccc(Cl)cc2)noc1N1CCN(c2ccc(C)cc2C)CC1	14.1 µM [falling, partial curve]	–
COc1ccc(OCc2cccc(C(=O)NN)c2)cc1	–	0.0891 µM [falling, full curve, poor fit]
COC(=O)C1=C(O)/C(=C\c2ccc(CNS(=O)(=O)c3ccccc3)o2)N=C1C	4.47 µM [falling, single point]	–
O=C(Nc1ccccc1)c1nnsc1S(=O)(=O)c1ccc(Cl)cc1	4.47 µM [falling, partial curve, poor fit]	–
O=C(Nc1ccc(N2CCN(C(=O)c3ccccc3)CC2)c(Cl)c1)c1cccnc1	–	11.2 µM [rising, single point]
Cc1ccc2nc(N(Cc3cccnc3)C(=O)COc3ccccc3)sc2c1	4.47 µM [falling, full curve]	4.47 µM [falling, full curve, poor fit]
COCCNc1ncnc2ccc(-c3c(C)noc3C)cc12	0.794 µM [falling, full curve]	–
O=C(CSc1ccc(-c2ccc(Br)cc2)nn1)N1CCOCC1	–	0.00316 µM [falling, full curve, poor fit]
Cc1cccc(N2CCN(CCNC(=O)C3COc4ccccc4C3)CC2)c1C (stereo not given)	12.6 µM [falling, single point]	–
COc1ccc(-c2nnc(SCc3nc4ccccc4s3)n2C(C)C)cc1	–	10 µM [rising, partial curve, poor fit]
Cc1ccc(CNC(=O)c2cc3c(=O)n4ccccc4nc3n(Cc3ccco3)c2=N)cc1	10 µM [rising, partial curve]	10 µM [rising, partial curve, poor fit]
O=C(NC1CC(=O)N(c2cccc(F)c2)C1)c1ccc(Br)o1 (stereo not given)	–	0.00316 µM [falling, full curve, poor fit]
CCCCCc1nnc(NC(=O)C2COc3ccccc3O2)s1 (stereo not given)	0.708 µM [rising, single point]	–
Cc1ccccc1-c1nsc(SCC(=O)Nc2ccc3c(c2)OCO3)n1	–	0.794 µM [rising, partial curve, poor fit]
O=C(NC1CCCCC1)c1sc(N2CCOCC2)nc1-c1ccccc1	–	0.0251 µM [rising, full curve, poor fit]

Random excerpt: 2 entries already listed.
Compound	AC50 [1]	AC50 [2]
COc1ccc(-c2nnc(SCc3nc4ccccc4s3)n2C(C)C)cc1	–	10 µM [rising, partial curve, poor fit]
Cc1ccccc1-c1nsc(SCC(=O)Nc2ccc3c(c2)OCO3)n1	–	0.794 µM [rising, partial curve, poor fit]
